Source: the supplement of paper PMC6411743
± gives the standard deviation of the averaged measurements. The list shows a part of the results, in another mix than the full data.

Protein sequences, listed by entry. Tags and fused reporters are not part of them. Lines headed by an entry give the natural chain unless they say otherwise; changes in a name come on top.
UniProt Q96P47: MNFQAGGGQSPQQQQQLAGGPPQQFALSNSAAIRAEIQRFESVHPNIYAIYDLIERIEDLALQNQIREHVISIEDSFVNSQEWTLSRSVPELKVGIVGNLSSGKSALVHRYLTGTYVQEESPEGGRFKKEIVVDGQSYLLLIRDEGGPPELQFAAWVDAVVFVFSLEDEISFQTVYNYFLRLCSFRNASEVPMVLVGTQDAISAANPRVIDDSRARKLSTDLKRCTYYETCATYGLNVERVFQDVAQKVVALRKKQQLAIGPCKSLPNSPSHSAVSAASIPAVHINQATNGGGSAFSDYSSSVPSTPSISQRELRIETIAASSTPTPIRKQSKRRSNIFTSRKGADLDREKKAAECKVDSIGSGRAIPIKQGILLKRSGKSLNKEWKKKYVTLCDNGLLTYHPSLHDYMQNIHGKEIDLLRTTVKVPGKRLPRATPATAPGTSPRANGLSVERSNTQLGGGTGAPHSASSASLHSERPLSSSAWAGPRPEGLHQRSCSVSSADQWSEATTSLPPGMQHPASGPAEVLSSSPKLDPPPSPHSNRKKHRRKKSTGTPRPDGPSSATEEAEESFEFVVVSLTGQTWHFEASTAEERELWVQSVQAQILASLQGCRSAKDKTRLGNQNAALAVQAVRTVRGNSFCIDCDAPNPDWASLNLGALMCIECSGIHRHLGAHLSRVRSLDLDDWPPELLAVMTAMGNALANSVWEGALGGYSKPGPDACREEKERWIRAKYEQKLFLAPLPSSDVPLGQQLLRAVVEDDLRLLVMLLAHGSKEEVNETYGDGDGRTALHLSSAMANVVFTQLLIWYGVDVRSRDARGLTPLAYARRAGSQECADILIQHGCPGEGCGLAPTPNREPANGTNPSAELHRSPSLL
UniProt Q96J01: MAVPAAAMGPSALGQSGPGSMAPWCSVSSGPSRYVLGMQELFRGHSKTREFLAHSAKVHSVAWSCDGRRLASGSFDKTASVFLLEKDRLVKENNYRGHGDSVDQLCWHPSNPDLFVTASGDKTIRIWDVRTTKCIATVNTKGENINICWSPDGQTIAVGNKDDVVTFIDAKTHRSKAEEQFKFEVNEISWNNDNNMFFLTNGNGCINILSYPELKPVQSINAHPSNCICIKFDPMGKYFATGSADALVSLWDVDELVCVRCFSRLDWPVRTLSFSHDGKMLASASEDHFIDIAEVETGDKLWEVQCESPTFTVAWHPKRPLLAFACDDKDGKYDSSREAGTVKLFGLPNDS
UniProt Q96DT7: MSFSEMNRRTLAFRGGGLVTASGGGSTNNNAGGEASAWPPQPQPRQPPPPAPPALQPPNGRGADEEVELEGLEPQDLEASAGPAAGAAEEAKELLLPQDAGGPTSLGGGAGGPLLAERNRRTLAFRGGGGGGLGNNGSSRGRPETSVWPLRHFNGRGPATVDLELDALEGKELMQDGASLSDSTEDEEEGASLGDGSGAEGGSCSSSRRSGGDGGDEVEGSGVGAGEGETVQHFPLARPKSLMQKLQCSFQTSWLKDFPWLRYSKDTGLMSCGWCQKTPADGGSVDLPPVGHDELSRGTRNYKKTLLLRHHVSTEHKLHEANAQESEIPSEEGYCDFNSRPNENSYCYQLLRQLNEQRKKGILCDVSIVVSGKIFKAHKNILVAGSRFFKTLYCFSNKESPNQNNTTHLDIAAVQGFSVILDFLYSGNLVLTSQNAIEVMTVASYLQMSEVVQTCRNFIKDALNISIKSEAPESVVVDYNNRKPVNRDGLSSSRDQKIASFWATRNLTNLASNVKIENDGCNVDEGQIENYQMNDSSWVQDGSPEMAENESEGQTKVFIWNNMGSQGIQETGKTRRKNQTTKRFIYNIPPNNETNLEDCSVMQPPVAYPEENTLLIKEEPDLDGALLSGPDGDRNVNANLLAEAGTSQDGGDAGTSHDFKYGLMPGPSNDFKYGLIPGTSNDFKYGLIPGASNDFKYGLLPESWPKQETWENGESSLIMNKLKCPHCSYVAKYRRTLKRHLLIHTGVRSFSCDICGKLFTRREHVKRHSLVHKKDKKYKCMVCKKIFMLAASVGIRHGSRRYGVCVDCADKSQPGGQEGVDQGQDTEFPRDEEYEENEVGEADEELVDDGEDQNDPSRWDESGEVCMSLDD
UniProt Q96HW7, whole entry: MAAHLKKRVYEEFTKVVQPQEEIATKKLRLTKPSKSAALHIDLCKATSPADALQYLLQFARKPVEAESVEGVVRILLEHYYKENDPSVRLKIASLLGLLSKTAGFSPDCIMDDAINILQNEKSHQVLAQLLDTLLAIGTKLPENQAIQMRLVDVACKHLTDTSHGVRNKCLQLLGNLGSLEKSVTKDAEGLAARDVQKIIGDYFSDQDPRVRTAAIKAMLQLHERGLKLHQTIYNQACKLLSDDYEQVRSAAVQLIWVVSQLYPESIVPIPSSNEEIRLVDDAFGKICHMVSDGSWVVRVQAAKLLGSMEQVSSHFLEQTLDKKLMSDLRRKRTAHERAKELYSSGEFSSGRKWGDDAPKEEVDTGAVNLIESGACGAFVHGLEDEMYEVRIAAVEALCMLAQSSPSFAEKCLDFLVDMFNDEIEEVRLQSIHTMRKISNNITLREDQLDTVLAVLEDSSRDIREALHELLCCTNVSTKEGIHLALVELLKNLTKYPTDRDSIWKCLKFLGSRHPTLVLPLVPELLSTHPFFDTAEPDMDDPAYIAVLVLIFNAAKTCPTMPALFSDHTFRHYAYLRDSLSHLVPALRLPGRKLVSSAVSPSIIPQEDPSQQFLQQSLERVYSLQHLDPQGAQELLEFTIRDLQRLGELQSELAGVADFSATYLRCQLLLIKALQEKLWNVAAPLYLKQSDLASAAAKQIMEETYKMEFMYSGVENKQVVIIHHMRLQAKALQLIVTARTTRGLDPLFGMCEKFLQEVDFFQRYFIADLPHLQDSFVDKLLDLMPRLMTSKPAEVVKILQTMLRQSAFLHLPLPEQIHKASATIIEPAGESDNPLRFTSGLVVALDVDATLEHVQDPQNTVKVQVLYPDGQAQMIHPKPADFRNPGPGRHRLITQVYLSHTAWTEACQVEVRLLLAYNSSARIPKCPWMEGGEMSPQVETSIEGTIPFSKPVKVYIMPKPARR
UniProt Q96CS3: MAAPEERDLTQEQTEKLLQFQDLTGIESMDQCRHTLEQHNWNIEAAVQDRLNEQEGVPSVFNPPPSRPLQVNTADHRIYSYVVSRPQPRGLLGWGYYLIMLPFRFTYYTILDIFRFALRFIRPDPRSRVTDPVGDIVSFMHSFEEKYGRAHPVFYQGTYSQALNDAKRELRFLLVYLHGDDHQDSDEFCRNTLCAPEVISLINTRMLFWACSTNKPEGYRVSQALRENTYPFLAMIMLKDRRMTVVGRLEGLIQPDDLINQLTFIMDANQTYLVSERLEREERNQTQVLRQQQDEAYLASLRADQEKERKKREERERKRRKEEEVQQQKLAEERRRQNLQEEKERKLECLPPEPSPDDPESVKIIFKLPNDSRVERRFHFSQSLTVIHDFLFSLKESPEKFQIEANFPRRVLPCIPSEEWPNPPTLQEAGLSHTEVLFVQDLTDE
UniProt Q96ES7: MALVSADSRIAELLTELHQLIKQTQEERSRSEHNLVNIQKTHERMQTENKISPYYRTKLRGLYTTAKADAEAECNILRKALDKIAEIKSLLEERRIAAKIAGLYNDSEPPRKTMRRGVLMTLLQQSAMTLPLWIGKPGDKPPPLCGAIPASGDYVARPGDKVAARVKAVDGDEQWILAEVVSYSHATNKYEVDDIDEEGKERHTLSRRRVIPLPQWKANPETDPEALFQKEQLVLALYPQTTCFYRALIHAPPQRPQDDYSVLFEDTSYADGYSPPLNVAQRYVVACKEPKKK
UniProt Q969X0: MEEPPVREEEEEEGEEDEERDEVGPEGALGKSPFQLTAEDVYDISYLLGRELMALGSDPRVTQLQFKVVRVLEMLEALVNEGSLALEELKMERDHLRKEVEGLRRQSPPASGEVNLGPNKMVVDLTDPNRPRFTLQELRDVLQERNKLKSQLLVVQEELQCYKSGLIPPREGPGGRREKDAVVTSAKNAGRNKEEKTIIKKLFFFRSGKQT
UniProt Q96EV8: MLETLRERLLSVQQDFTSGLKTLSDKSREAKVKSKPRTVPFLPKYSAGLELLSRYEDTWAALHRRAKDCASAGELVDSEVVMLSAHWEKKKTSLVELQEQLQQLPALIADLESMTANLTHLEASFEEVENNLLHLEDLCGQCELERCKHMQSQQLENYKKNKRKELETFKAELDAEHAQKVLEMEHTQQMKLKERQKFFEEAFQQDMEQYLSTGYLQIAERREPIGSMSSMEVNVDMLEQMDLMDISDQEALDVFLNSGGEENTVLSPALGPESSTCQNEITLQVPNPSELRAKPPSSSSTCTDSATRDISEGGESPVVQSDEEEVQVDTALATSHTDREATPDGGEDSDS
UniProt Q96LJ7: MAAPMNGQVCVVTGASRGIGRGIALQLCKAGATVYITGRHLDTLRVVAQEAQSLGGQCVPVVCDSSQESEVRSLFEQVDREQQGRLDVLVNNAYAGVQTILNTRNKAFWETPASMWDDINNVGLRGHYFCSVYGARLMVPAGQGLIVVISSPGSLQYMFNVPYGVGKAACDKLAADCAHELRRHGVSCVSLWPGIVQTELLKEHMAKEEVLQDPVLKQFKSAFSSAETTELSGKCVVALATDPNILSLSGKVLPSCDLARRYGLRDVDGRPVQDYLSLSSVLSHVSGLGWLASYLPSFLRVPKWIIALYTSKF
UniProt Q96BZ8: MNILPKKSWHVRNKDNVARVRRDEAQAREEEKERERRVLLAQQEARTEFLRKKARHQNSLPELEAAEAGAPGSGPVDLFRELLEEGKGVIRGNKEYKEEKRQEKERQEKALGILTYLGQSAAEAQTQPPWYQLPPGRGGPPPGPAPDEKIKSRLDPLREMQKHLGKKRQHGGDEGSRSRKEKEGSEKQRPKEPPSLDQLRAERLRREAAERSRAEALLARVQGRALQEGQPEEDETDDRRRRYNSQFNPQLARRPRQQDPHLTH
UniProt Q969T7: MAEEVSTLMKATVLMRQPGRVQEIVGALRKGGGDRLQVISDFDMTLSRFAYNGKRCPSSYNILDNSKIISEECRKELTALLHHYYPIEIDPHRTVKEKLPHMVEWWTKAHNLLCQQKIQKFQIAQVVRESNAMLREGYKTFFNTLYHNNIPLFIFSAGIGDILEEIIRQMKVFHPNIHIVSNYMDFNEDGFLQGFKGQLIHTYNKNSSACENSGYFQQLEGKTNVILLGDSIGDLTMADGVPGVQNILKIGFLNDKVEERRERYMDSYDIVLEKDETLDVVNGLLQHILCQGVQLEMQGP
UniProt Q96P16: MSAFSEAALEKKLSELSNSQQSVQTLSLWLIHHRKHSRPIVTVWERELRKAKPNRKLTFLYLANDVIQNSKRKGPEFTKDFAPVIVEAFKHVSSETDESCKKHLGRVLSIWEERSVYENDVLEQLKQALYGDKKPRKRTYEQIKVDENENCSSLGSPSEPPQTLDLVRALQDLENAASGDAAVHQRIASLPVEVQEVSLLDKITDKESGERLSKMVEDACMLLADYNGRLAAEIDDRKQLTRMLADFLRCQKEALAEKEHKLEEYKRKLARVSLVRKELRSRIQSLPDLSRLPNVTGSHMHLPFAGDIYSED
UniProt Q969H8: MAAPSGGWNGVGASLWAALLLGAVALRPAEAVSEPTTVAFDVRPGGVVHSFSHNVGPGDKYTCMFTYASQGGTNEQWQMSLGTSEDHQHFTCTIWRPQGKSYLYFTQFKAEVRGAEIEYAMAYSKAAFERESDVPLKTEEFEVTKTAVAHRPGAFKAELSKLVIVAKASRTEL
UniProt Q96AJ9: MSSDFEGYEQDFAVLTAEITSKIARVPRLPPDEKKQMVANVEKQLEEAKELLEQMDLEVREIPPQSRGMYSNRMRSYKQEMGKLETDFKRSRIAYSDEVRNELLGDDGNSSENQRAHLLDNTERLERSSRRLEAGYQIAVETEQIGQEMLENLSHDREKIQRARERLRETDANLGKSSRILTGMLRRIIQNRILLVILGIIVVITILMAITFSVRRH
UniProt Q969N2: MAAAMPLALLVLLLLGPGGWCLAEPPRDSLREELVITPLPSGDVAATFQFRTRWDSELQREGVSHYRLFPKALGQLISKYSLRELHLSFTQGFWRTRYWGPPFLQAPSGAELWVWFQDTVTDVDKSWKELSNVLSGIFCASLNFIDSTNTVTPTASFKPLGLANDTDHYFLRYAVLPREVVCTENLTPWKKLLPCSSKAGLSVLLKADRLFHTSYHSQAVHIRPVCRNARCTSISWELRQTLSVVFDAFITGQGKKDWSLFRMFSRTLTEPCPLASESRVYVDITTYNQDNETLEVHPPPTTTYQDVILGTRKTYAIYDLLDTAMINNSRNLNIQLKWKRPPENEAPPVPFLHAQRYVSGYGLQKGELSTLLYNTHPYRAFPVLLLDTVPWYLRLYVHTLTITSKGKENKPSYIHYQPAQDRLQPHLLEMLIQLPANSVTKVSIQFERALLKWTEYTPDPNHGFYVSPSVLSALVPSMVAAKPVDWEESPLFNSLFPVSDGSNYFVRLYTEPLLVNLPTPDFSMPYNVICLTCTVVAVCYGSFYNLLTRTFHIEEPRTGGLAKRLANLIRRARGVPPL

Compound: Nc1ncnc2c1ncn2[C@@H]1O[C@H](COP(=O)(O)OP(=O)(O)NP(=O)(O)O)[C@@H](O)[C@H]1O [adenylyl imidodiphosphate]
Assay: NP40-soluble protein abundance relative to vehicle (solubility fold change) (ratio); higher = more soluble protein in presence of AMP-PNP
How it was run: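 Data come from three independent experiments in which Dounce-homogenised Jurkat crude lysate was treated at eight concentrations from 0.1 to 10 mM. Treatment ran 10 min at room temperature and then 3 min at 37 °C, after which 0.8% NP40 and benzonase were added for 60 min at 4 °C before ultracentrifugation. The supernatant underwent TMT labelling and LC-MS/MS, and vsn-normalised intensities were expressed as fold change against the detergent-processed vehicle in each replicate.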

Target | NP40-soluble protein abundance (concentration: 1mM) | NP40-soluble protein abundance (concentration: 2mM) | NP40-soluble protein abundance (concentration: 4mM) | NP40-soluble protein abundance (concentration: 6mM) | NP40-soluble protein abundance (concentration: 8mM) | NP40-soluble protein abundance (concentration: 10mM)
UniProt Q96P47 and related entries | 1.02 ± 0.019 | 0.9959 ± 0.0076 | 1.01 ± 0.03 | 1 ± 0.072 | 1.04 ± 0.018 | 1.024 ± 0.0092
THOC3 (UniProt Q96J01) | 1.07 ± 0.069 | 1.1 ± 0.075 | 1.17 ± 0.15 | 1.24 ± 0.16 | 1.3 ± 0.23 | 1.34 ± 0.27
ZBTB10 (UniProt Q96DT7) | 0.99 ± 0.022 | 0.997 ± 0.011 | 1.03 ± 0.034 | 0.994 ± 0.042 | 0.975 ± 0.022 | 0.996 ± 0.025
UniProt Q96JM3 | 1.07 ± 0.044 | 1.16 ± 0.039 | 1.16 ± 0.014 | 1.21 ± 0.069 | 1.23 ± 0.057 | 1.29 ± 0.037
NARS2 (UniProt Q96I59) | 0.955 ± 0.032 | 0.904 ± 0.033 | 0.927 ± 0.036 | 1 ± 0.048 | 1 ± 0.011 | 0.963 ± 0.066
UniProt Q96J02 and related entries | 1.01 ± 0.018 | 0.966 ± 0.067 | 1.01 ± 0.042 | 0.993 ± 0.049 | 1.03 ± 0.03 | 0.978 ± 0.025
INTS4 (UniProt Q96HW7) | 0.987 ± 0.012 | 0.976 ± 0.07 | 1.02 ± 0.054 | 1.04 ± 0.053 | 1.09 ± 0.072 | 1.05 ± 0.12
FAF2 (UniProt Q96CS3) | 0.979 ± 0.022 | 0.979 ± 0.026 | 1.01 ± 0.015 | 0.988 ± 0.031 | 0.9613 ± 0.0095 | 0.974 ± 0.017
UniProt Q96D31 and related entries | 1 ± 0.041 | 0.992 ± 0.029 | 1.01 ± 0.026 | 1.01 ± 0.02 | 1.05 ± 0.018 | 1.01 ± 0.045
UniProt Q96ES7 | 0.975 ± 0.015 | 1.03 ± 0.038 | 0.967 ± 0.018 | 0.993 ± 0.034 | 0.963 ± 0.048 | 0.992 ± 0.036
UniProt Q96CN4 and related entries | 1 ± 0.035 | 0.998 ± 0.067 | 1.02 ± 0.025 | 1 ± 0.011 | 0.974 ± 0.024 | 0.956 ± 0.049
UHRF2 (UniProt Q96PU4) | 1.01 ± 0.025 | 0.997 ± 0.048 | 0.986 ± 0.038 | 0.927 ± 0.038 | 0.886 ± 0.08 | 0.885 ± 0.07
RILPL2 (UniProt Q969X0) | 0.9862 ± 0.0081 | 0.982 ± 0.046 | 0.97 ± 0.04 | 0.948 ± 0.026 | 0.945 ± 0.026 | 0.943 ± 0.034
UniProt Q96JK2 and related entries | 0.991 ± 0.035 | 0.984 ± 0.049 | 0.986 ± 0.053 | 0.992 ± 0.037 | 0.983 ± 0.035 | 0.989 ± 0.043
EXOSC8 (UniProt Q96B26) | 1.05 ± 0.07 | 1.06 ± 0.051 | 1.11 ± 0.091 | 1.19 ± 0.08 | 1.24 ± 0.097 | 1.25 ± 0.15
MRPL53 (UniProt Q96EL3) | 0.987 ± 0.06 | 1.01 ± 0.023 | 0.986 ± 0.061 | 0.98 ± 0.045 | 1 ± 0.063 | 1 ± 0.066
DTNBP1 (UniProt Q96EV8) | 1.05 ± 0.057 | 1.07 ± 0.062 | 1.06 ± 0.038 | 0.982 ± 0.016 | 0.988 ± 0.043 | 0.98 ± 0.08
DHRS1 (UniProt Q96LJ7) | 1 ± 0.027 | 0.9851 ± 0.0044 | 1.01 ± 0.026 | 1 ± 0.012 | 1 ± 0.034 | 0.971 ± 0.024
LENG1 (UniProt Q96BZ8) | 1.05 ± 0.018 | 1.12 ± 0.052 | 1.12 ± 0.053 | 1.11 ± 0.044 | 1.11 ± 0.048 | 1.1 ± 0.071
UniProt Q969T7 and related entries | 0.981 ± 0.054 | 0.95 ± 0.043 | 0.999 ± 0.029 | 0.966 ± 0.025 | 0.96 ± 0.042 | 0.963 ± 0.046
RPRD1A (UniProt Q96P16) | 0.98 ± 0.013 | 1.04 ± 0.059 | 1.01 ± 0.028 | 1.06 ± 0.082 | 1.09 ± 0.014 | 1.06 ± 0.061
UniProt Q96AE7 and related entries | 1.05 ± 0.039 | 1.06 ± 0.057 | 1.03 ± 0.061 | 0.984 ± 0.032 | 0.993 ± 0.0063 | 0.981 ± 0.026
RSPRY1 (UniProt Q96DX4) | 0.999 ± 0.012 | 0.984 ± 0.011 | 0.977 ± 0.025 | 0.985 ± 0.04 | 0.985 ± 0.022 | 1 ± 0.04
UniProt Q969H8 | 0.9848 ± 0.0052 | 0.915 ± 0.067 | 0.971 ± 0.03 | 1 ± 0.062 | 1.06 ± 0.05 | 0.97 ± 0.088
NSUN4 (UniProt Q96CB9) | 0.93 ± 0.044 | 0.884 ± 0.035 | 0.97 ± 0.066 | 1.01 ± 0.12 | 1.1 ± 0.079 | 1.05 ± 0.018
PTCD3 (UniProt Q96EY7) | 0.98 ± 0.066 | 0.958 ± 0.062 | 0.934 ± 0.12 | 0.928 ± 0.12 | 0.936 ± 0.12 | 0.941 ± 0.18
UniProt Q969P0 and related entries | 0.984 ± 0.041 | 0.984 ± 0.032 | 1 ± 0.034 | 1.03 ± 0.059 | 1.03 ± 0.04 | 1.04 ± 0.028
UniProt Q96AJ9 and related entries | 1.02 ± 0.049 | 1.06 ± 0.073 | 1.01 ± 0.059 | 0.991 ± 0.038 | 0.982 ± 0.02 | 1 ± 0.063
UniProt Q969N2 and related entries | 0.935 ± 0.077 | 0.917 ± 0.032 | 0.956 ± 0.032 | 1.01 ± 0.06 | 0.986 ± 0.071 | 1.02 ± 0.049
LRRC45 (UniProt Q96CN5) | 0.977 ± 0.065 | 0.919 ± 0.029 | 0.969 ± 0.022 | 0.97 ± 0.015 | 1 ± 0.032 | 0.956 ± 0.03

Two entries drawn at random from those above:
Target | NP40-soluble protein abundance (concentration: 1mM) | NP40-soluble protein abundance (concentration: 2mM) | NP40-soluble protein abundance (concentration: 4mM) | NP40-soluble protein abundance (concentration: 6mM) | NP40-soluble protein abundance (concentration: 8mM) | NP40-soluble protein abundance (concentration: 10mM)
NSUN4 (UniProt Q96CB9) | 0.93 ± 0.044 | 0.884 ± 0.035 | 0.97 ± 0.066 | 1.01 ± 0.12 | 1.1 ± 0.079 | 1.05 ± 0.018
RILPL2 (UniProt Q969X0) | 0.9862 ± 0.0081 | 0.982 ± 0.046 | 0.97 ± 0.04 | 0.948 ± 0.026 | 0.945 ± 0.026 | 0.943 ± 0.034
